Measured values reported in patent US8975400B2, “2,3-dihydroimidazo[1, 2-c] pyrimidin-5(1 H)-one compounds use as LP-PLA2 inhibitors” (Glaxo Group Limited, priority 2011, dated 2015).
Some results were stated once for a whole list of compounds, not compound by compound.

Key:
Lp-PLA2 in human plasma = biological target: T1, Lp-PLA2 in human plasma (Homo sapiens, UniProt Q13093); experiment: Lp-PLA2 human plasma assay (Thio-PAF assay); format: biochemical; settings: pooled human plasma, 2-thio-PAF substrate
T1 construct: This assay may detect the activity of Lp-PLA2 in human plasma; from tissue; host or cells: pooled human plasma
T1 sequence (Q13093 22-441): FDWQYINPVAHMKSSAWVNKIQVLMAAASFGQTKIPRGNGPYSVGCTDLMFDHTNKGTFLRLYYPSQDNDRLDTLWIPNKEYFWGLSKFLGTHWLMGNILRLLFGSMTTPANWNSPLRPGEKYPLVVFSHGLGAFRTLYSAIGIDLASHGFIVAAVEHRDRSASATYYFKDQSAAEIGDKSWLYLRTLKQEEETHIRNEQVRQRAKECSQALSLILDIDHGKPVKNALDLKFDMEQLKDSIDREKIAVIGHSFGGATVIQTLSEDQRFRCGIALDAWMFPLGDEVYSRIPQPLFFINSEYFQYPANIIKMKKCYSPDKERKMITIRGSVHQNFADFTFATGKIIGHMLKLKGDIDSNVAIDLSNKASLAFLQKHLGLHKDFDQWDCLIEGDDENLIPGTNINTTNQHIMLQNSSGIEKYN
Text: (3) Lipoprotein-Associated Phospholipase A2 (Lp-PLA2) Human Plasma Assay (Also Referred to as “Thio-PAF Assay”)
The human plasma assay utilizes a thioester analog of PAF (phosphatidylcholine), where hydrolysis yields to the formation of a phospholipid containing a free thiol group. The amount of thiol is quantitated continuously by reacting with CPM (7-diethylamino-3-(4′-maleimidylphenyl)-4-methylcoumarin), a maleimide which increases in fluoresence after Michael addition of thiols. This assay may detect the activity of Lp-PLA2 in human plasma, as determined by specific inhibition by Lp-PLA2 inhibitors.
The thio-PAF assay was run as a quenched 15 μL assay. Compounds source plate was prepared by making 1:3 (by volume) serial dilution of the compounds into pure DMSO on 384-well microplate. 0.01 μL of compounds on compound source plate were transferred to 384 well Greiner 784076 (black) low-volume plates by ECHO liquid dispenser. 8 μL pooled human plasma, which was previously aliquoted and frozen, was added. Plates were centrifuged for 10 sec at 500 rpm. […] Plates were read at ex: 380/em: 485 using-Envision microplate reader. pIC50 data, curve and QC analysis was conducted by using XLFit module in Excel.

[1] = biological target: T2, recombinant human Lp-PLA2 (Homo sapiens, UniProt Q13093); experiment: Recombinant human Lp-PLA2 assay (rhLp-PLA2, PED6 assay); format: biochemical; settings: recombinant human Lp-PLA2, PED6 substrate; upper limit for pIC50 in this assay is 9.3
T2 sequence (Q13093 22-441): T1 sequence (Q13093 22-441)
Text: (1) Recombinant Human Lp-PLA2 Assay (rhLp-PLA2) (Also Referred to as “PED6” Assay)
N-((6-(2,4-dinitrophenyl)amino)-hexanoyl)-2-(4,4-difluoro-5,7-dimethyl-4-bora-3a,4a-diaza-s-indacene-3-pentanoyl)-1-hexadecanoyl-sn-glycero-3-phosphoethanolamine, triethylammonium salt (PED6) is a commercially available fluorescently-labeled phospholipid, which is commercially available from Invitrogene and Molecular Probes. There is a quenching […] and a Bodipy fluorescein (FL) group in the sn2 position. Upon cleavage with Lp-PLA2, the Bodipy FL group is liberated and then may result in an increase in fluorescence. Inhibitors of Lp-PLA2 therefore prevent this cleavage and no fluorescent increase is observed.
The PED6 assay was run as an unquenched 10 μL assay. The source plate containing the compounds to be tested was prepared by making 1:3 (by volume) serial dilution of the compounds within DMSO on 384-well microplate. Then, 0.01 μL of the compounds on compound source plate were transferred into 384 well Greiner 784076 (black) plates using ECHO liquid dispenser. […] The plates were read for fluorescence intensity at ex: 480/em: 540 using ViewLux microplate imager for Envision spectrofluroimeters pIC50 data, curve and QC analysis was conducted by using XL fit module in Excel. […]

7-((4-(3,4-difluorophenoxy)-3-fluorobenzyl)oxy)-2,3-dihydroimidazo[1,2-c]pyramid-in-5(1H)-one [Example 131]
pIC50 in the thio-PAF assay (Lp-PLA2 in human plasma): at least 7.0 | pIC50 in the thio-PAF assay (Lp-PLA2 in human plasma; listed as example 131): at least 6.0 | rhLp-PLA2 (PED6 assay) (pIC50) [1]: at least 8.0
